Results taken from paper PMC4526233.
These are yes or no findings as the source states them, for the method shown. In cells and extracts the contact can be indirect. A yes stands for co-enrichment or nearness to the bait. Other partners may have been found. Sequences can lack the tags named with a protein.

Protein sequences, listed by entry. Tags and fused reporters are not part of them.
UniProt Q92598: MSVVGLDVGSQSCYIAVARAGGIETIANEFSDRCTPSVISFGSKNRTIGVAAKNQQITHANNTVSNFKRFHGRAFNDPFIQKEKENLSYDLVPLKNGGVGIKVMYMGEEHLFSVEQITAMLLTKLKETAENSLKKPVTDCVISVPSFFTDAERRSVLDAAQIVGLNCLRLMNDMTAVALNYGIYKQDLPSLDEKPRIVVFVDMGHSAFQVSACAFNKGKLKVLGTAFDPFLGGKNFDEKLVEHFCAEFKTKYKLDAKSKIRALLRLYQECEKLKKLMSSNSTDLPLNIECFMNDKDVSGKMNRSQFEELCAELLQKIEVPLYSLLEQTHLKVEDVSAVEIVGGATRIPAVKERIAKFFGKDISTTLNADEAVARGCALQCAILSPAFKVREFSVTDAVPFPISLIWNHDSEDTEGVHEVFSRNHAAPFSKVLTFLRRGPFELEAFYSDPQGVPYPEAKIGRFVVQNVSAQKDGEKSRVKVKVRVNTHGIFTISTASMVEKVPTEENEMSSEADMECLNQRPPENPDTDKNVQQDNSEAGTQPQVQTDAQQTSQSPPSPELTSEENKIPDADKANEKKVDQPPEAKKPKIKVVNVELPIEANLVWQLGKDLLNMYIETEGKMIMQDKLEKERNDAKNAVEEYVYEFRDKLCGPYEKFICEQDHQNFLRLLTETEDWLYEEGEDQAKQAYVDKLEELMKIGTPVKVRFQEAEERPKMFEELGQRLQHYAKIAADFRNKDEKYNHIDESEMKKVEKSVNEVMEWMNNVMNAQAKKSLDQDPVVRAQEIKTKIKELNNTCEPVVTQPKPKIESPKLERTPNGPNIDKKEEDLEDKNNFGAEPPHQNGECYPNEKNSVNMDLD
UniProt P11142: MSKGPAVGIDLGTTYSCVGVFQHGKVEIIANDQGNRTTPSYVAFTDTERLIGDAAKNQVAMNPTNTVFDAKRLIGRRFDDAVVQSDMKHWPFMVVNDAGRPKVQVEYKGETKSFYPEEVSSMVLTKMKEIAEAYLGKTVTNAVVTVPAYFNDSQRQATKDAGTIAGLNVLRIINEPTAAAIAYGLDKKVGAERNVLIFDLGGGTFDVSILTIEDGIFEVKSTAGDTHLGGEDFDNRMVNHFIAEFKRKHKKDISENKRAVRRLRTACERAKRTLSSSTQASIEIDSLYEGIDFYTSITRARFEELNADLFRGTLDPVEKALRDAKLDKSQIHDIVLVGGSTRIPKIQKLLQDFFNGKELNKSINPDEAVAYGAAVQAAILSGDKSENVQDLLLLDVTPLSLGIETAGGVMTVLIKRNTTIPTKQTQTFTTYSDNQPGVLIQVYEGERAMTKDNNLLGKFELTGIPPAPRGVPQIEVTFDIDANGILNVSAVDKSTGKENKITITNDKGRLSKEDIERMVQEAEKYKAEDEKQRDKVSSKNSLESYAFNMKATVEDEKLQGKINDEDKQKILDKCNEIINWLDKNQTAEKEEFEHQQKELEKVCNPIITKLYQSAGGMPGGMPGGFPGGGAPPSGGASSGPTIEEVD

Target: T1, 3x-FLAG tagged B14 (B14-3xF) (UniProt Q8TBM8)
T1 sequence: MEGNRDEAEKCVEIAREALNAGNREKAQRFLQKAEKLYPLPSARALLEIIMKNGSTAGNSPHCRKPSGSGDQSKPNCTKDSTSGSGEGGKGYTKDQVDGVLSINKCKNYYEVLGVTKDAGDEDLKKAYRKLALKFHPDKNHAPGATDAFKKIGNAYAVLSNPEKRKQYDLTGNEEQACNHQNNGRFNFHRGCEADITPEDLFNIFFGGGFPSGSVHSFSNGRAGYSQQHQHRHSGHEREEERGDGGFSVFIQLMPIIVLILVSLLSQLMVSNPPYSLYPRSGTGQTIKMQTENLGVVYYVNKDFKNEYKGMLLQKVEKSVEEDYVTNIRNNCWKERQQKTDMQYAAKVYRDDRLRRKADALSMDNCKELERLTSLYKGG
Experiment: affinity purification with mass spectrometry

Substance	binding
Hsp105 (endogenous, Flp-In 293 T-Rex cells) (from UniProt Q92598 1-858)	binds
Hsc70 (endogenous, Flp-In 293 T-Rex cells) (from UniProt P11142 1-646)	binds
